Assay results as given in PubChem BioAssay AID1347423 (Functional Genomics Laboratory (NCATS/FGL), 2020).
Among all 52,000 sequences or so, about 210 (0.4%) were called active.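 How the source made its calls: active means gene whose silencing raises cell survival under the drug, median off-target-corrected z-score across its silencing RNAs 2 or more; inactive means the rest.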 Some of the results follow.

Test: Resistance to Poly (ADP-Ribose) Polymerase inhibitor: Gene Identification via Genome-wide siRNA Screen
Conditions: mouse BRCA2 R2336H ES cells, olaparib, CellTiter-Glo viability; stronger effect = higher value
Outline: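 Genome-wide siRNA screen (3 siRNAs/gene, 20 nM) in mouse ES cells carrying hypomorphic BRCA2 R2336H; olaparib 500 nM added 48 h post-transfection, CellTiter-Glo viability 72 h later. Normalized to plate-median negative control; MAD z-scores, gene median, seed-adjusted.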

Sequence | z-score
GGAAGUACAAUGCAAUCAATT against Obox3 | inactive: 1.02
GGAUUUAACUCCAUUUCAATT against Tlr3 | inactive: 2.42
GCUUAGCCUCGGAAUGUGGTT against 1810073E21Rik | inactive: -0.22
GGCCAAGAUUAGAUUGCUUTT against Senp2 | inactive: -1.26
CCAAGUCCUUCAUCGAAUATT against Kif1a | inactive: 0.139
GGACUUCAUCUCCAAACGCTT against Snag1 | inactive: -0.428
GGAUCACCCAUACAGGAACTT against Pla2g2f | inactive: 0.764
GGACAUUGAGGAUUAUGUCTT against Thrap4 | inactive: 1.03
CCAUCAUGAACAGCCAGCUTT against Olfr463 | inactive: -1.63
GGAAGACAAUGGUGUGAAATT against Pgm3 | inactive: 0.499
GGCUAUUGUUGGUAGAACUTT against Dek | inactive: 0.532
GCUUGGAUAUACAGAUUAATT against A030001H23Rik | inactive: 0.631
GCUAAUGGUCCAUUGAUAUTT against Btn2 | inactive: -0.513
CCAUUAUAGAUCGUCAAUATT against Nalp9c | inactive: -0.316
GGAGACGACUCCAUUCACATT against Thbs3 | inactive: -0.714
GGGAUCUUACAUGCCACCATT against Olfr1231 | inactive: 0.567
GGACCUUGAGAAAGUAGUCTT against Ms4a10 | inactive: -0.411
GGGAGCAGCGAGAUGAAUUTT against Tmem16b | inactive: -0.779
GGACAAAAGAUGAAUGCUCTT against Msln | inactive: 1.33
GGACUUUGUCAACCAUGUCTT against Fbxl5 | inactive: 0.453
GGUGAUUUGAACUGUGAAATT against 1810020E01Rik | inactive: -2.15
CCCUAACAUCUCUUUGUUGTT against Slc15a3 | inactive: 0.559
GCCGAUCCAUUUUUGGCUCTT against B930074I24 | inactive: 1.31
GGUUGAAACGAGUUUUGAATT against Zbtb5 | inactive: -1.01
GGUGGUGCAGGGAUUACAATT against 2510004L01Rik | inactive: 0.428
GGUCAUUCAGUGGUGCACCTT against Skp1a | inactive: -0.0512

Look-ups from above:
z-score with GGAUCACCCAUACAGGAACTT against Pla2g2f reads inactive: 0.764
z-score with GGAUUUAACUCCAUUUCAATT against Tlr3 reads inactive: 2.42
z-score with GCCGAUCCAUUUUUGGCUCTT against B930074I24 reads inactive: 1.31
z-score with CCAUCAUGAACAGCCAGCUTT against Olfr463 reads inactive: -1.63

Following part

Sequence | z-score
GCAAAACUGUGUCAGUAUCTT against Slco5a1 | inactive: -0.732
GGCCCUGGUUUCAUUAGGATT against Gab3 | inactive: 0.309
GGGUCUUGCCUACUUGCAUTT against Map4k5 | inactive: 0.574
GCCAAUGUCGGAAAAAAUUTT against 4932411G14Rik | inactive: -1.13
CCUGGUACAAGAGGAGUUUTT against Myg1 | inactive: 0.392
GGACAACUUCUUCAUUGAGTT against Slc8a2 | inactive: -0.576
GGGUUUGGAGUUUGAUUUATT against Hrasls3 | inactive: 0.583
AACGUAAUUAGCGUGAAUUTT against Cyp2j11 | inactive: 0.219
CCUAAUUUGAUCCUUCGAATT against 4930488P06Rik | inactive: -0.173
GGUGCAGUUGAAAGAACUCTT against Hoxa13 | inactive: 0.607
GGAGCUUUCUCAAGAUUCATT against Arid1a | inactive: 0.173
GGCCGAGACUUCUCUUUUATT against Grin2c | inactive: -0.771
GGAAUUUCUGAAUGACUUATT against 2310031L18Rik | inactive: 0.858
GCUAAAAAUGGUUGUGUGATT against E130112H22Rik | inactive: 0.272
GGAUGUAACAUUUCUUCAATT against 4932432N11Rik | inactive: 1.91
GGGAAGAACUUCAAGCUUGTT against Ptk2b | inactive: -0.698
GGAAUAAGGAAGUUAUUGGTT against Olfr706 | inactive: 0.826
UGGCCUUUGCCCUACAUUUTT against BC061259 | inactive: 0.0438
GGGAGCUGUUCUAUGAAGATT against Fhl3 | inactive: -0.171
GGAUGGAGGAAGACUCGAUTT against Etv6 | inactive: -1.77
GGACCUCGAUACAAUGGUCTT against Gkn1 | inactive: -0.193
GGACAUGUCUUCCCUGAAUTT against Hgs | inactive: -0.0696
CCGACUACCUUUCUUCACCTT against Cdh23 | inactive: 0.221
GGCUACAGAAGCUACUAAATT against Akr1c6 | inactive: 0.241
CCUUGCUACGGAUUGGAGATT against 9230105I15Rik | inactive: -0.989
GCGGCCGAAAUUUAUGAGGTT against 2610101N10Rik | inactive: 1.01
